Earlier results in patent publication US7947285B2, “Methods for preventing post endoscopic retrograde cholangiopancreatography pancreatitis” (priority 2003, dated 2011).
At least one compound was matched to its structure with a doubt left.

Legend:
post-ERCP pancreatitis [1] = conditions: prophylaxis; meta-analysis of 28 clinical trials; cited from earlier work
post-ERCP pancreatitis [2] = conditions: high-risk patients; two large controlled trials; cited from earlier work

C[C@H](N)C(=O)NCC(=O)N[C@H]1CSSC[C@@H](C(=O)O)NC(=O)[C@H](CO)NC(=O)[C@H]([C@@H](C)O)NC(=O)[C@H](Cc2ccccc2)NC(=O)[C@H]([C@@H](C)O)NC(=O)[C@H](CCCCN)NC(=O)[C@H](Cc2c[nH]c3ccccc23)NC(=O)[C@H](Cc2ccccc2)NC(=O)[C@H](Cc2ccccc2)NC(=O)[C@H](CC(N)=O)NC(=O)[C@H](CCCCN)NC1=O [somatostatin]
reducing the frequency of post-ERCP pancreatitis (post-ERCP pancreatitis [1]): effective | preventing post-ERCP pancreatitis (post-ERCP pancreatitis [2]): ineffective
